Test results: PubChem BioAssay AID624291 (National Center for Advancing Translational Sciences (NCATS), 2012)
In all, about 350,000 compounds went through this assay and about 220 (0.063%) were called active. The inconclusive results got no clear call from the source; some entries with a clear call stand among them for comparison. The call rests on the fitted dose curve; in most records, active means well fitted activation curve with a large enough effect; inconclusive means small, poorly fitted or top-dose-only effect; inactive means no such curve, though single readings can be large or run the other way. A potency beside an inconclusive call is a rough fit, not a confirmed value.

experiment: qHTS for Activators of Integrin-Mediated Alleviation for Muscular Dystrophy; settings: alpha7betagal myoblasts, beta-gal FDG fluorescence, 48 h; activation: at 38.3 µM (top of the series); further: nearly all actives have a fitted effect of over 60% in size;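 on activation: 100% = response of the positive control SU9516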
In short: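 alpha7betagal+/- myoblasts (passage 13, 250/well) treated 48 h at 37C with compounds at 1:260 dilution of DMSO stock. Lysed, then beta-galactosidase activity read as FDG fluorescence (ex 480/em 540) after 30 min, with pre-read for autofluorescence.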
Potency means the concentration at half of the fitted maximal effect.

| SMILES | Potency | activation |
| --- | --- | --- |
| CCC(C)(C)NC(=O)CN(C(=O)C(=O)Nc1ccc2c(c1)OCCO2)C(C)(C)CC | inconclusive: 28.2 µM [activator, single point] |  |
| Cc1noc(C)c1COc1ccccc1C(=O)NNC(=O)c1ccccc1F |  | inactive: 4.07% |
| CNC(=S)N1N=C(c2cccs2)CC1c1ccc(OC)cc1 (configuration not stated) | inconclusive: 0.447 µM [activator, full curve, poor fit] |  |
| CCN1/C(=C/c2ccc3cc(C)ccc3[n+]2CC)Sc2cc(C)c(C)cc21 |  | inconclusive: -68.1% [activator] |
| O=C(NC(Cc1ccccc1)C(=O)O)/C(=C/c1ccc([N+](=O)[O-])cc1)NC(=O)c1ccccc1Br (configuration not stated) |  | inactive: 4.7% |
| Cc1noc(/C=C/N(C)C)c1S(=O)(=O)N1CCCC(C(=O)NCc2ccc(Cl)cc2)C1 (configuration not stated) | inconclusive: 2 µM [activator, partial curve, poor fit] |  |
| Fc1ccccc1C1c2[nH]c3ccccc3c2CCN1CCCn1cccn1 (configuration not stated) | inconclusive: 2.82 µM [activator, single point] |  |
| C=CCN1C(=O)c2ccc(C(=O)OCC(=O)N(CC)c3c(N)n(Cc4ccccc4)c(=O)[nH]c3=O)cc2C1=O | inconclusive: 3.16 µM [activator, single point] |  |
| O=c1nccc(N/N=C/c2ccccc2)[nH]1 | inconclusive: 28.2 µM [activator, partial curve, poor fit] |  |
| COc1ccc(NC(=O)C2CCOC2=O)cc1 (configuration not stated) |  | inactive: 6.37% |
| O=C(CCc1ccccn1)N1CCCC(Nc2ccc(F)cc2)C1 (configuration not stated) | inconclusive: 2.82 µM [activator, single point] |  |
| N/C(=N\c1nc(CSc2ccc(Cl)cc2)cc(=O)[nH]1)Nc1ccccc1C(F)(F)F | inconclusive: 5.01 µM [activator, single point] |  |
| CC(C)c1c(Cl)c(O)c(-c2ccccc2)c(=O)n1-c1ccc(F)cc1 |  | inactive: 3.69% |
| Cc1csc(NC(=O)CSc2nnc(-c3cccs3)n2C)n1 | inconclusive: 2.82 µM [activator, single point] |  |
| CC(=O)N(C)c1ccc(NC(=O)Cc2cccc3ccccc23)cc1 | inconclusive: 15.8 µM [activator, single point] |  |
| COCCn1c(=S)[nH]c2ccc(N(C)C)cc2c1=O |  | inactive: -6.04% |
| CCOC(=O)[C@@H]1[C@H]2COc3ccc(Br)cc3[C@@H]2N2C(=O)N(c3cccc(F)c3)C(=O)[C@@]12C |  | inactive: -4.89% |
| C=CCOC(=O)C1=C(C)NC(=S)NC1c1cccs1 (configuration not stated) | inconclusive: 3.55 µM [activator, single point] |  |
| O=C(NNS(=O)(=O)c1ccc(Br)cc1)c1ccccc1-n1cccc1 | inconclusive: 28.2 µM [activator, single point] |  |
| O=C(NCc1ccco1)c1ccc2c(c1)N(Cc1ccccc1)CCS2 | inconclusive: 0.501 µM [activator, full curve, poor fit] |  |
| O=C(NC1CCN(Cc2ccc(Cl)cc2)CC1)c1cn(-c2ccccc2)nc1-c1cccnc1 |  | inactive: -51.2% |
| CC(=O)c1cc2c(cc1N(C(=O)c1ccco1)C(C(=O)NC1CCCC1)c1ccccc1F)OCO2 (configuration not stated) | inconclusive: 3.55 µM [activator, full curve, poor fit] |  |
| COCCn1c(SCC(=O)NC2CCCCC2)nnc1-c1ccncc1 | inconclusive: 8.91 µM [activator, partial curve] |  |
| CC(=O)N(CCCN1CCOCC1)Cc1ccncc1 |  | inactive: 35.9% |

Copied from the list.
Potency, `CC(=O)c1cc2c(cc1N(C(=O)c1ccco1)C(C(=O)NC1CCCC1)c1ccccc1F)OCO2` (configuration not stated) is entered as inconclusive: 3.55 µM [activator, full curve, poor fit]
Potency, `N/C(=N\c1nc(CSc2ccc(Cl)cc2)cc(=O)[nH]1)Nc1ccccc1C(F)(F)F` is entered as inconclusive: 5.01 µM [activator, single point]
Potency, `O=C(CCc1ccccn1)N1CCCC(Nc2ccc(F)cc2)C1` (configuration not stated) is entered as inconclusive: 2.82 µM [activator, single point]

(list continues)

| SMILES | Potency | activation |
| --- | --- | --- |
| CC(Oc1cccc(Cl)c1)C(=O)Nc1cc(S(=O)(=O)N2CCOCC2)ccc1N1CCCCC1 (configuration not stated) |  | inactive: 6.04% |
| CC(C)CCNC(=O)CCCOc1cc(=O)n(C)c2ccccc12 | inconclusive: 10 µM [activator, partial curve, poor fit] |  |
| Cc1ccc(N2C(=O)SC(Cc3ccccc3)C2=O)cc1 (configuration not stated) | inconclusive: 10 µM [activator, partial curve, poor fit] |  |
| COc1ccc(CC(=O)NCCc2cnc[nH]2)cc1 | inconclusive: 28.2 µM [activator, single point] |  |
| COc1ccc(CNC(=O)C(c2cccc(C)c2)N(C(=O)c2csnn2)C2CC2)cc1 (configuration not stated) | inconclusive: 28.2 µM [activator, single point] |  |
| CC1CCCCN1C(=O)c1cc(-c2ccc(Cl)c(Cl)c2)on1 (configuration not stated) | inconclusive: 5.62 µM [activator, partial curve, poor fit] |  |
| CC(C)CN1C(=O)C(=O)N(CC(=O)NCc2ccc3c(c2)OCO3)C1=O |  | inactive: -13.5% |
| O=[N+]([O-])c1ccc2c(OCc3nnc(-c4ccccc4Br)o3)ncnc2c1 | inconclusive: 11.2 µM [activator, partial curve, poor fit] |  |
| CC(C)Cn1c(SCC(=O)N2CCN(S(=O)(=O)c3ccccc3)CC2)nc2ccccc21 | inconclusive: 28.2 µM [activator, single point] |  |
| COc1ccc(/C=N/n2cnc3c([nH]c4ccc(C)cc43)c2=O)cc1CN1CCCC1 |  | inactive: -37% |
| Cc1cc(C)n(-c2ccc(NC(=O)C3CCCCN3C(=O)c3ccoc3)cc2)n1 (configuration not stated) | inconclusive: 28.2 µM [activator, single point] |  |
| CSCCC(NC(=O)c1ccccc1Br)C(=O)NNC(=O)c1ccco1 (configuration not stated) | inconclusive: 2.82 µM [activator, single point] |  |
| CCC(C(=O)Nc1cccnc1Cl)c1ccccc1 (configuration not stated) | inconclusive: 5.01 µM [activator, single point] |  |
| CCOC(=O)C1CCCN(CC(=O)Nc2c(C(=O)OC)[nH]c3ccc(C)cc23)C1 (configuration not stated) |  | inactive: 18.3% |
| CCCCN(C)S(=O)(=O)c1ccc(C(=O)Nc2nnc(C3=COCCO3)o2)cc1 |  | inactive: -39.7% |
| COCC(C)NC(=S)NCCc1ccc(Cl)cc1Cl (configuration not stated) | inconclusive: 2.51 µM [activator, single point] |  |
| Cc1ccc(Cl)cc1NC(=S)N1CCCCCC1 | inconclusive: 3.16 µM [activator, single point] |  |
| CCCc1[nH]n(-c2nc3ccccc3s2)c(=O)c1C=NCC1CCCO1 (configuration not stated) | inconclusive: 15.8 µM [activator, single point] |  |
| CN(C(=S)NC(=O)c1ccccc1)C1CCCCC1 | inconclusive: 22.4 µM [activator, single point] |  |
| O=C(/C=C/c1ccc(S(=O)(=O)NCc2ccco2)cc1)NCc1cccc(Cl)c1 | inconclusive: 14.1 µM [activator, single point] |  |
| CC1(C)CC(=O)c2cnn(-c3nc4ccccc4[nH]3)c2C1 |  | inactive: 10.8% |
| Nc1cc2nsnc2cc1Br |  | inactive: -61.9% |
| C=C(C)CN(CC)C(=O)CN1C(=O)NC2(CCCc3ccccc32)C1=O (configuration not stated) | inconclusive: 3.55 µM [activator, single point] |  |
| CCOc1ccccc1N1CCN(CC(=O)N(C2CCCC2)C2CCS(=O)(=O)C2)CC1 (configuration not stated) | inconclusive: 22.4 µM [activator, single point] |  |

| SMILES | Potency | activation |
| --- | --- | --- |
| CCN1CCN(c2ccc(N=Cc3ccc(O)cc3O)cc2)CC1 | inconclusive: 3.16 µM [activator, single point] |  |
| CC1=NN(C(=O)c2ccccc2)C(O)(c2ccc(Br)cc2)C1 (configuration not stated) |  | inactive: -24.6% |
| COc1ccc(CNc2nc(NC(C)=O)nn2-c2ccccc2)cc1 | inconclusive: 3.55 µM [activator, single point] |  |
| COc1cccc(N/C=C/c2onc(C)c2[N+](=O)[O-])c1 | inconclusive: 2.51 µM [activator, single point] |  |
| O=C1CCC([N+](=O)[O-])C(C2CC=CCC2)N1 (configuration not stated) | inconclusive: 2 µM [activator, single point] |  |
| O=c1c2[nH]c3ccc(Br)cc3c2ncn1Cc1ccncc1 | inconclusive: 5.01 µM [activator, single point] |  |
| CC(Oc1ccc(Cl)cc1Cl)C(=O)Nc1ccc2oc(-c3ccncc3)nc2c1 (configuration not stated) |  | inactive: -6.64% |
| O=S(=O)(N[C@@H]1C[C@H]2CC[C@@H]1C2)c1cccs1 | inconclusive: 17.8 µM [activator, single point] |  |
| Cc1ccccc1C(=O)NNC(=S)NC(=O)c1ccccc1 |  | inactive: -1.62% |
| COC(=O)c1c(NC(=S)NC(=O)c2ccco2)sc2c1CCCC2 |  | inactive: 4.19% |
| Cc1ccc(NC(=O)Cc2nnc(SCC(=O)c3ccc(Br)cc3)n2C)cc1 |  | inactive: -8.97% |
| CC(NC(=O)c1ccc(C(C)(C)C)cc1)C(c1cccs1)N1CCOCC1 (configuration not stated) | inconclusive: 7.08 µM [activator, partial curve, poor fit] |  |
| CC(O)CNc1nc(Cl)c(C#N)s1 (configuration not stated) |  | inactive: -7.81% |
| CCOC(=O)Cc1csc(CC(N)=O)n1 | inconclusive: 1 µM [activator, full curve, poor fit] |  |
| O=C(NNc1ccccc1)C(CCO)C(=O)NNc1ccccc1 |  | inactive: -1.85% |
| CC(=O)c1ccc(NC(=O)CN2CCCCCC2)cc1 | inconclusive: 2.51 µM [activator, single point] |  |
| Cc1nn(-c2ccc(F)cc2)c(N)c1C1(O)C(=O)Nc2ccccc21 (configuration not stated) |  | inactive: 18.7% |
| COC(=O)[C@H]1C[C@H](OC(=O)NCc2ccccc2)[C@@]2(O)CN(S(=O)(=O)c3ccc(C)cc3)CC2[C@H]1C(=O)OC (some centres not stated) |  | inactive: 5.31% |
| Cc1ccc(NC(=O)N2CCCC2c2cccs2)cc1 (configuration not stated) |  | inactive: -25.4% |
| c1ccc(CN2CCC(=NNc3nc4ccccc4[nH]3)CC2)cc1 |  | inactive: 13.7% |
| COc1ccc(S(=O)(=O)N/N=C(/C)c2ccncc2)cc1OC | inconclusive: 5.01 µM [activator, single point] |  |
| NC(=O)c1ccc(N=Cc2ccc([N+](=O)[O-])s2)cc1 |  | inactive: -67.6% |
| COc1ccccc1N1CCN(C(=O)C(C)CS(=O)(=O)c2ccc3c(c2)NC(=O)CS3)CC1 (configuration not stated) | inconclusive: 28.2 µM [activator, single point] |  |
| Cc1ccc(/C=C2/CNC/C(=C/c3ccc(C)cc3)C2=O)cc1 |  | inactive: -56.1% |
